Measurements reported in PubChem BioAssay AID1224830 (NIAID, 2016).

Screen: 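Regulators of TLR4 signalling towards TNF-alpha in macrophage-like cells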 (primary screen)
System: human THP-1 monocytic leukaemia cells, TNF dual-luciferase reporter clone, PMA-differentiated to macrophage-like cells
Knock-down reagent: siRNA pool against human genes, 50 nM
Time to read-out: LPS for 4 h, given about 3 days after siRNA transfection
Challenge: bacterial LPS (TLR4 ligand), 10 ng/ml
Read-out: 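TNF firefly reporter luminescence divided by renilla, normalised to the plate median, then turned into a robust z-score for each replicate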
Direction: TNF reporter robust z-score: higher = stronger TNF reporter response to LPS
Hit rule: 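Each well counts as active if its z-score is over 2.8 or under -1.5; controls are left without a call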
In all, the deposit lists about 18,000 reagents; shown is a random part of them. In the full data, about 2,900 (16%) got an active call. 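Calls are made per well; low scores hint the gene aids the LPS response, high scores that it dampens it.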 Unmarked entries are inactive. Repeated entries: four replicate wells of each siRNA pool.

IL9R (interleukin 9 receptor)
- TNF reporter robust z-score: 0.3

IL9R (interleukin 9 receptor)
- TNF reporter robust z-score: 0.95

IL9R (interleukin 9 receptor)
- TNF reporter robust z-score: 0.22

IL9R (interleukin 9 receptor)
- TNF reporter robust z-score: 1

BBS1 (Bardet-Biedl syndrome 1)
- TNF reporter robust z-score: 1.85

BBS1 (Bardet-Biedl syndrome 1)
- TNF reporter robust z-score: 0.04

BBS1 (Bardet-Biedl syndrome 1)
- TNF reporter robust z-score: -0.34

CYP4V2 (cytochrome P450 family 4 subfamily V member 2)
- TNF reporter robust z-score: -0.06

CYP4V2 (cytochrome P450 family 4 subfamily V member 2)
- TNF reporter robust z-score: 0.08

CYP4V2 (cytochrome P450 family 4 subfamily V member 2)
- TNF reporter robust z-score: -0.03

CYP4V2 (cytochrome P450 family 4 subfamily V member 2)
- TNF reporter robust z-score: 0.51

RPL39L (ribosomal protein L39 like)
- TNF reporter robust z-score: -0.89

RPL39L (ribosomal protein L39 like)
- TNF reporter robust z-score: -0.15

RPL39L (ribosomal protein L39 like)
- TNF reporter robust z-score: -0.06

RPL39L (ribosomal protein L39 like)
- TNF reporter robust z-score: 0.27

CATSPERT (catsper channel auxiliary subunit tau)
- TNF reporter robust z-score: -0.01

CATSPERT (catsper channel auxiliary subunit tau)
- TNF reporter robust z-score: -0.35

CATSPERT (catsper channel auxiliary subunit tau)
- TNF reporter robust z-score: -0.62

CATSPERT (catsper channel auxiliary subunit tau)
- TNF reporter robust z-score: -1.18

CTCFL (CCCTC-binding factor like)
- TNF reporter robust z-score: -0.2

CTCFL (CCCTC-binding factor like)
- TNF reporter robust z-score: -0.67

CTCFL (CCCTC-binding factor like)
- TNF reporter robust z-score: -0.73

CTCFL (CCCTC-binding factor like)
- TNF reporter robust z-score: 0

RPS14 (ribosomal protein S14)
- TNF reporter robust z-score: 0.02

RPS14 (ribosomal protein S14)
- TNF reporter robust z-score: 0.56

RPS14 (ribosomal protein S14)
- TNF reporter robust z-score: -0.55

RPS14 (ribosomal protein S14)
- TNF reporter robust z-score: 1.09

F9 (coagulation factor IX)
- TNF reporter robust z-score: 0.37

F9 (coagulation factor IX)
- TNF reporter robust z-score: 1.16

F9 (coagulation factor IX)
- TNF reporter robust z-score: 0.72

F9 (coagulation factor IX)
- TNF reporter robust z-score: 1.78

OSTN (osteocrin)
- TNF reporter robust z-score: -0.29

OSTN (osteocrin)
- TNF reporter robust z-score: 1.05

OSTN (osteocrin)
- TNF reporter robust z-score: -0.58

OSTN (osteocrin)
- TNF reporter robust z-score: 0.75

Reformatted: results already given.
{"Gene":"RPS14 (ribosomal protein S14)","TNF reporter robust z-score":1.09}
{"Gene":"F9 (coagulation factor IX)","TNF reporter robust z-score":0.37}
{"Gene":"F9 (coagulation factor IX)","TNF reporter robust z-score":1.16}
{"Gene":"F9 (coagulation factor IX)","TNF reporter robust z-score":0.72}
{"Gene":"F9 (coagulation factor IX)","TNF reporter robust z-score":1.78}
{"Gene":"OSTN (osteocrin)","TNF reporter robust z-score":-0.29}
{"Gene":"OSTN (osteocrin)","TNF reporter robust z-score":1.05}
{"Gene":"OSTN (osteocrin)","TNF reporter robust z-score":-0.58}
{"Gene":"OSTN (osteocrin)","TNF reporter robust z-score":0.75}

Additional results follow:
ZNF100 (zinc finger protein 100)
- TNF reporter robust z-score: -0.23

ZNF100 (zinc finger protein 100)
- TNF reporter robust z-score: -0.66

ZNF100 (zinc finger protein 100)
- TNF reporter robust z-score: 0.2

ZNF100 (zinc finger protein 100)
- TNF reporter robust z-score: 0.8

H1-3 (H1.3 linker histone, cluster member)
- TNF reporter robust z-score: -0.86

H1-3 (H1.3 linker histone, cluster member)
- TNF reporter robust z-score: -1.21

H1-3 (H1.3 linker histone, cluster member)
- TNF reporter robust z-score: -1.39

H1-3 (H1.3 linker histone, cluster member)
- TNF reporter robust z-score: -1.31

RDH14 (retinol dehydrogenase 14)
- TNF reporter robust z-score: -0.17

RDH14 (retinol dehydrogenase 14)
- TNF reporter robust z-score: 0.19

RDH14 (retinol dehydrogenase 14)
- TNF reporter robust z-score: -0.94

RDH14 (retinol dehydrogenase 14)
- TNF reporter robust z-score: 0.93

CALB2 (calbindin 2)
- TNF reporter robust z-score: 1.33

CALB2 (calbindin 2)
- TNF reporter robust z-score: 1.28

CALB2 (calbindin 2)
- TNF reporter robust z-score: 1.06

CALB2 (calbindin 2)
- TNF reporter robust z-score: -0.03

USP46 (ubiquitin specific peptidase 46)
- TNF reporter robust z-score: -0.29

USP46 (ubiquitin specific peptidase 46)
- TNF reporter robust z-score: -1.43

USP46 (ubiquitin specific peptidase 46)
- TNF reporter robust z-score: -0.5

USP46 (ubiquitin specific peptidase 46)
- TNF reporter robust z-score: 0.8

DVL3 (dishevelled segment polarity protein 3)
- TNF reporter robust z-score: 0.18

DVL3 (dishevelled segment polarity protein 3)
- TNF reporter robust z-score: 0.73

DVL3 (dishevelled segment polarity protein 3)
- TNF reporter robust z-score: 0.57

DVL3 (dishevelled segment polarity protein 3)
- TNF reporter robust z-score: 1.13

ACO2 (aconitase 2)
- TNF reporter robust z-score: -1.76 (active)

ACO2 (aconitase 2)
- TNF reporter robust z-score: -1.9 (active)

ACO2 (aconitase 2)
- TNF reporter robust z-score: -1.65 (active)
